# Measurements: patent US10293024B2, “MAP kinase P38 binding compounds” (Blueberry Therapeutics Limited, priority 2013, dated 2019)
# Sequences of proteins named here, by UniProt entry; tags and fusion partners are left off. Residues count along the entry.
# UniProt Q16539, whole entry: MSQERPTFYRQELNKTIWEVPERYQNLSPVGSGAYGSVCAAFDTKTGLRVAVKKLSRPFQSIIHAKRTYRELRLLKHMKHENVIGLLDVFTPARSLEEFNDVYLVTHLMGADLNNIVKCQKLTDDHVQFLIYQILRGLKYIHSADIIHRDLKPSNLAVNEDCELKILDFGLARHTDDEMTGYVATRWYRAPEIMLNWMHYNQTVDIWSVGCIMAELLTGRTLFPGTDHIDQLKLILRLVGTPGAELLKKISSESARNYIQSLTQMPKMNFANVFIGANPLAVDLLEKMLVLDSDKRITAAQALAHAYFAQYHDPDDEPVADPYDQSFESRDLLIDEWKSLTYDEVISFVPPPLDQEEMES
# UniProt Q15759, whole entry: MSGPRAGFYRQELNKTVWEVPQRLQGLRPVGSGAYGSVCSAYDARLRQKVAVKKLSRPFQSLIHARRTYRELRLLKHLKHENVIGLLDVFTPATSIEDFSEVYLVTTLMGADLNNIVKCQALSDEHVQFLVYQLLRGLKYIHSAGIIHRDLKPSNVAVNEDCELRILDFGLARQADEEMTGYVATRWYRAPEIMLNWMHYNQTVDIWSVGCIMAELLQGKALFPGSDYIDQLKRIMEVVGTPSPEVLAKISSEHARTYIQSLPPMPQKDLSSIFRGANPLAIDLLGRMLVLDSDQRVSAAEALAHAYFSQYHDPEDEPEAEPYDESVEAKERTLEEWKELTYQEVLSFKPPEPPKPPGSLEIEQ
# UniProt Q05655, whole entry, species assumed: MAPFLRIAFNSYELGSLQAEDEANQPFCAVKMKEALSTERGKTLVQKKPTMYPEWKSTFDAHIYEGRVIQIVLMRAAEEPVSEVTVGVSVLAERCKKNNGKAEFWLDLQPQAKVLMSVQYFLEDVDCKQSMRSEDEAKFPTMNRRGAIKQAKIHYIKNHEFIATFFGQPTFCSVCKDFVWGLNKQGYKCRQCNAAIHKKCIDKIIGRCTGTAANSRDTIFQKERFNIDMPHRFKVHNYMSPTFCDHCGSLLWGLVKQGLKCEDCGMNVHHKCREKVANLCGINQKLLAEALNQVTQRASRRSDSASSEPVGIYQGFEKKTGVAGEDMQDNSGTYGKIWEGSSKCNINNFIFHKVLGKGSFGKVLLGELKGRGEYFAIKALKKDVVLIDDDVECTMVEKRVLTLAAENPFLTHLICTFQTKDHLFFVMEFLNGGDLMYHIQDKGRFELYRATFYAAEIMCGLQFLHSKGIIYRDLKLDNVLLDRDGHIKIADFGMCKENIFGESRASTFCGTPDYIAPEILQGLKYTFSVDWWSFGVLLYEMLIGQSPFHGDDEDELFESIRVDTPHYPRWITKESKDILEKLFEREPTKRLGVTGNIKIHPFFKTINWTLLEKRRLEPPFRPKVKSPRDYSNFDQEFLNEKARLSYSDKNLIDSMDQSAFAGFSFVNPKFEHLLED
# UniProt O14965, whole entry, species assumed: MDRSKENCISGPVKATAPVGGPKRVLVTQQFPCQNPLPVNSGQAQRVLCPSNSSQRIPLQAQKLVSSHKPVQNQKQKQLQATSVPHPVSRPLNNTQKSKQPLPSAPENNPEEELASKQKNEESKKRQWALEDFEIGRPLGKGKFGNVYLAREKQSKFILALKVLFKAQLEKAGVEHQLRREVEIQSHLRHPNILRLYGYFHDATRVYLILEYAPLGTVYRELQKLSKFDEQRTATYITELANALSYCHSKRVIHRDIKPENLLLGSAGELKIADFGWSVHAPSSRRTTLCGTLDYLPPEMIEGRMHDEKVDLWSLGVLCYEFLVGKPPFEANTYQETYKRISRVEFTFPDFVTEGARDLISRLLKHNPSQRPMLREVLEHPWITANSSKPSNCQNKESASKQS
# UniProt P53779, whole entry, species assumed: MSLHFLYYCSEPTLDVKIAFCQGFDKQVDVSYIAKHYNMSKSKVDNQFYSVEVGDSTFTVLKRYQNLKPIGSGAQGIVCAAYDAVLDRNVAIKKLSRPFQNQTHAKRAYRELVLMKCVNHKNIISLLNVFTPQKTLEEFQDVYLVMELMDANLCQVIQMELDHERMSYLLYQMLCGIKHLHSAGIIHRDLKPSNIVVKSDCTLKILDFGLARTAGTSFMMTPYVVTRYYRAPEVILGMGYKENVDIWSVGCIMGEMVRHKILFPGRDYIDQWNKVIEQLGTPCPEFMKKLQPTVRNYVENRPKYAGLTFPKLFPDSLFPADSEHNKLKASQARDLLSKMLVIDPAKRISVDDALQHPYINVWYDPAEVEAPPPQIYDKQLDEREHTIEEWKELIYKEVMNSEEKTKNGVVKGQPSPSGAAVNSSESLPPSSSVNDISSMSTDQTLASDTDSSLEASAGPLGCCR
# UniProt P05771, whole entry, species assumed: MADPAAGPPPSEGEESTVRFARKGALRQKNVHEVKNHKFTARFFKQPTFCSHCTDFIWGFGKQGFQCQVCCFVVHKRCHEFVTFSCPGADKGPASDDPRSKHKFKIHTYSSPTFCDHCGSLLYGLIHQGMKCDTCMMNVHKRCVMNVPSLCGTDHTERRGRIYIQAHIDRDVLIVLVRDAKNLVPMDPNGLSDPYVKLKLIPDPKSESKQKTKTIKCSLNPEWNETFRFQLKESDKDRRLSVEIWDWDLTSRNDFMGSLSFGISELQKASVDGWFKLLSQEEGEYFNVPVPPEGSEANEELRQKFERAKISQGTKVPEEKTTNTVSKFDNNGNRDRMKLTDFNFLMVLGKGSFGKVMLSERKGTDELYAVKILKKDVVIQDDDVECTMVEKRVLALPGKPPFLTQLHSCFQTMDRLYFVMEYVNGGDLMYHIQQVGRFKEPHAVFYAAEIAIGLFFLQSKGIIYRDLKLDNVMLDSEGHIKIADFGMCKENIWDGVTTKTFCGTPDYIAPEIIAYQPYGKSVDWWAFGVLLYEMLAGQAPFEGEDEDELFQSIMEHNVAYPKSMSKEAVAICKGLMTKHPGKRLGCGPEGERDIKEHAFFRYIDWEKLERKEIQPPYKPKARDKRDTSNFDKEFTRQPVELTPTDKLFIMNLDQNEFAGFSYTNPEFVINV
# UniProt P52564, whole entry, species assumed: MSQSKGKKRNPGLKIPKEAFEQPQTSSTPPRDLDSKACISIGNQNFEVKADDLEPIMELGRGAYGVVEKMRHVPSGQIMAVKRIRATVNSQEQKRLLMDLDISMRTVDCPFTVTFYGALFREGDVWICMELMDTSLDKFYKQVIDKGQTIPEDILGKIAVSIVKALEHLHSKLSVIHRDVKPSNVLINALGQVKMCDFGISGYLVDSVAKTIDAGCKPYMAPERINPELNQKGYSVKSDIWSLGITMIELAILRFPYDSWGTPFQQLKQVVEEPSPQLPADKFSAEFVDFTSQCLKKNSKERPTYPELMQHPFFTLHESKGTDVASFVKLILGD
# UniProt Q8IW41, whole entry, species assumed: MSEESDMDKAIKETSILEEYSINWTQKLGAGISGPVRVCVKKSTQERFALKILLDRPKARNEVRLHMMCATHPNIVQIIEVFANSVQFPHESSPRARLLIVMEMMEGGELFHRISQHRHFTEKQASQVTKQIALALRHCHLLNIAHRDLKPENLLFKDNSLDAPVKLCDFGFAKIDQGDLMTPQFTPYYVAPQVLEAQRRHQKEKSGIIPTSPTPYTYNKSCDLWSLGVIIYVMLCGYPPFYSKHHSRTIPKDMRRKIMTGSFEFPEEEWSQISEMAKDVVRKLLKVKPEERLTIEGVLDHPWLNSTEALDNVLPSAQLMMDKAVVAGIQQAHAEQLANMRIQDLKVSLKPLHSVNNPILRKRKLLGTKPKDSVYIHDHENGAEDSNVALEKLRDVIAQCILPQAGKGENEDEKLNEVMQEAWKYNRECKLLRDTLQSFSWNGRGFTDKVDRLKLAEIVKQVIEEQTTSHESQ
# UniProt P00533, 25-1210, species assumed: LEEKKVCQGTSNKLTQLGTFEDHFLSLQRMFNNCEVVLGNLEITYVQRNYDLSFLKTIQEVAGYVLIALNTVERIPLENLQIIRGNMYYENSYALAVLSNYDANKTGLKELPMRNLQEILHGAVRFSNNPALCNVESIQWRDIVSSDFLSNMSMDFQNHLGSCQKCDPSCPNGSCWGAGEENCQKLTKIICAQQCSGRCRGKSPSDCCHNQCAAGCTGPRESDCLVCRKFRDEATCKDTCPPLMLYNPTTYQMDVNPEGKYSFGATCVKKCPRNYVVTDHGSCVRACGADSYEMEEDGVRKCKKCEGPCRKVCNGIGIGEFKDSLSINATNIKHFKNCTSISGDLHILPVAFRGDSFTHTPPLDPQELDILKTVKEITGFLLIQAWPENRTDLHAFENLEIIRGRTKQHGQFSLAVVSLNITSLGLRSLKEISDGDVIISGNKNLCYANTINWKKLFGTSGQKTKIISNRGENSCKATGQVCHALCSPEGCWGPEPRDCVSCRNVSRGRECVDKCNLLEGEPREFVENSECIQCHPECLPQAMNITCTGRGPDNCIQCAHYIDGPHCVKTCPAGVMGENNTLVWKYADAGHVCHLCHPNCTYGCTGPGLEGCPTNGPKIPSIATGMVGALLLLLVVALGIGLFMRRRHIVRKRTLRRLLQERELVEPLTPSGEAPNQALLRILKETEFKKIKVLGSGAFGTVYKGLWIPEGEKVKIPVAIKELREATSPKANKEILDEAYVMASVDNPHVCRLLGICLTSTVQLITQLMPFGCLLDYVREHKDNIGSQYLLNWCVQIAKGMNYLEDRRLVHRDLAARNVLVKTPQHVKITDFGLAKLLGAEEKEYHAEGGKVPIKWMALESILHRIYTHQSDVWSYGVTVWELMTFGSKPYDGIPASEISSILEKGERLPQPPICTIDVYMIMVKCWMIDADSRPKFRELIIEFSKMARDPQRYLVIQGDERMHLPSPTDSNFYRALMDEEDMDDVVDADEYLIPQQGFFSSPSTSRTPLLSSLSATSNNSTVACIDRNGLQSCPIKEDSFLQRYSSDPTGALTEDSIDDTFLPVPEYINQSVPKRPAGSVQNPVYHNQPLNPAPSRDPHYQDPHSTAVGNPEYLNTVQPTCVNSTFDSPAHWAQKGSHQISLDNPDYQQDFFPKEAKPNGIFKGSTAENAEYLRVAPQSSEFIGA
# UniProt P12931, whole entry, species assumed: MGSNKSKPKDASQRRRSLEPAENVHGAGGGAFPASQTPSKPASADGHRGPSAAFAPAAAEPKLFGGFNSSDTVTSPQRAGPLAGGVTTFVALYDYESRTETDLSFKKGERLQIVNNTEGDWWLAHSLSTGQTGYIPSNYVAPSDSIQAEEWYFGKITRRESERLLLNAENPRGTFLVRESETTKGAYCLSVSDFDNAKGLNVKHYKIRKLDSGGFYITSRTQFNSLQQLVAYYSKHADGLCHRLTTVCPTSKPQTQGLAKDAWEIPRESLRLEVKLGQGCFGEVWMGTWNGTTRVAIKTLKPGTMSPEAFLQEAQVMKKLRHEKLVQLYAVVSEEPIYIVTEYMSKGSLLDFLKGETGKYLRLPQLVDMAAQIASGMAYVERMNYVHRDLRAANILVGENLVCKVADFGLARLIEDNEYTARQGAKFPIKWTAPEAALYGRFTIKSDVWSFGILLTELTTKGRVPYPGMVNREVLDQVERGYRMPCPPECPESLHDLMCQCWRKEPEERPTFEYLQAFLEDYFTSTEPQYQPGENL
# UniProt P41240, whole entry, species assumed: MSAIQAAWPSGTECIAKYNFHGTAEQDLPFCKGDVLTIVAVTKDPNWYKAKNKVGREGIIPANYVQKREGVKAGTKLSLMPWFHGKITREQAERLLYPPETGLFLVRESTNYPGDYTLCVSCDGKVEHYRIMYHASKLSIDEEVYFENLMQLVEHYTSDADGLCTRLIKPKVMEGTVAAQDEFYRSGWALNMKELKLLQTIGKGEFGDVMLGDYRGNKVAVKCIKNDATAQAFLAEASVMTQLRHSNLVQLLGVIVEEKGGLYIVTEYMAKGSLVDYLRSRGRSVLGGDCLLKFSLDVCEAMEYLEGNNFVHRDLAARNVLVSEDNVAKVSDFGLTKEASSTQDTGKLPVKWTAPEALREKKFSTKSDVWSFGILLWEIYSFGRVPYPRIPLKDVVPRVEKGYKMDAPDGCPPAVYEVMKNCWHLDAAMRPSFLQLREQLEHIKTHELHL
# Part of at least one peptide drawing is inferred or uncertain, most often the ends. Where no end group is shown, it is not given here.
# Key:
# [1] = molecular target: MKK6/OH-p38γ (Homo sapiens, UniProt P53778); assay: Inhibition of activation of non-phosphorylated p38γ by MKK6; type: biochemical; conditions: non-phosphorylated kinase
# [2] = molecular target: T1, MKK3/OH-P38α (Homo sapiens, UniProt Q16539); assay: Inhibition of activation of non-phosphorylated p38α by MKK3; type: biochemical; conditions: non-phosphorylated MAP kinase p38α
# T1 construct: 6-his; c-myc; made in house; host or cells: E. coli
# [3] = molecular target: T2, P-p38a/MBP (Homo sapiens, UniProt Q16539); assay: Inhibition of phosphorylated p38α activity, substrate MBP; type: biochemical; conditions: phosphorylated MAP kinase p38α
# T2 construct: 6-his; c-myc; made in house; host or cells: E. coli
# [4] = molecular target: T3, P-p38a/MK2 (Homo sapiens, UniProt Q16539); assay: Inhibition of phosphorylated p38α activity, substrate MK2; type: biochemical; conditions: phosphorylated MAP kinase p38α
# T3 construct: 6-his; c-myc; made in house; host or cells: E. coli
# [5] = molecular target: P-p38b/MBP (Homo sapiens, UniProt Q15759); assay: Inhibition of phosphorylated p38b activity, substrate MBP, V2; type: biochemical; conditions: phosphorylated kinase, with bg
# [6] = molecular target: P38a Act. CCEK (MAP kinase p38α) (Homo sapiens, UniProt Q16539); assay: Kinase selectivity panel: P38a Act. CCEK; type: biochemical; conditions: for IC50: kinase selectivity panel
# [7] = molecular target: Jnnk; assay: Kinase selectivity panel: Jnnk; type: biochemical
# [8] = molecular target: PKCd (Homo sapiens, UniProt Q05655); assay: Kinase selectivity panel: PKCd; type: biochemical
# [9] = molecular target: p38b (Homo sapiens, UniProt Q15759); assay: Kinase selectivity panel: p38b; type: biochemical
# [10] = molecular target: AMPK; assay: Kinase selectivity panel: AMPK; type: biochemical
# [11] = molecular target: AurA (Homo sapiens, UniProt O14965); assay: Kinase selectivity panel: AurA; type: biochemical
# [12] = molecular target: GK3b (Homo sapiens, UniProt P49841); assay: Kinase selectivity panel: GK3b; type: biochemical
# [13] = molecular target: RAF1 (Homo sapiens, UniProt P04049); assay: Kinase selectivity panel: RAF1; type: biochemical
# [14] = molecular target: JNK3 (Homo sapiens, UniProt P53779); assay: Kinase selectivity panel: JNK3; type: biochemical
# [15] = molecular target: VEGF; assay: Kinase selectivity panel: VEGF; type: biochemical
# [16] = molecular target: p38g (Homo sapiens, UniProt P53778); assay: Kinase selectivity panel: p38g; type: biochemical
# [17] = molecular target: PKCb (Homo sapiens, UniProt P05771); assay: Kinase selectivity panel: PKCb; type: biochemical
# [18] = molecular target: PKCa (Homo sapiens, UniProt P17252); assay: Kinase selectivity panel: PKCa; type: biochemical
# [19] = molecular target: PDHK2 (Homo sapiens, UniProt Q15119); assay: Kinase selectivity panel: PDHK2; type: biochemical
# [20] = molecular target: MKK6 (Homo sapiens, UniProt P52564); assay: Kinase selectivity panel: MKK6; type: biochemical
# [21] = molecular target: P38a KIP (MAP kinase p38α) (Homo sapiens, UniProt Q16539); assay: Kinase selectivity panel: P38a KIP; type: biochemical
# [22] = molecular target: p27; assay: Kinase selectivity panel: p27; type: biochemical
# [23] = molecular target: Cdk2 (Homo sapiens, UniProt P24941); assay: Kinase selectivity panel: Cdk2; type: biochemical
# [24] = molecular target: Prak (Homo sapiens, UniProt Q8IW41); assay: Kinase selectivity panel: Prak; type: biochemical
# [25] = molecular target: Chk1 (Homo sapiens, UniProt O14757); assay: Kinase selectivity panel: Chk1; type: biochemical
# [26] = molecular target: Egfr (Homo sapiens, UniProt P00533); assay: Kinase selectivity panel: Egfr; type: biochemical
# [27] = molecular target: Kdr (Homo sapiens, UniProt P35968); assay: Kinase selectivity panel: Kdr; type: biochemical
# [28] = molecular target: EGF; assay: Kinase selectivity panel: EGF; type: biochemical
# [29] = molecular target: Zap70 (Homo sapiens, UniProt P43403); assay: Kinase selectivity panel: Zap70; type: biochemical
# [30] = molecular target: IGFR (Homo sapiens, UniProt P08069); assay: Kinase selectivity panel: IGFR; type: biochemical
# [31] = molecular target: Src (Homo sapiens, UniProt P12931); assay: Kinase selectivity panel: Src; type: biochemical
# [32] = molecular target: Csk (Homo sapiens, UniProt P41240); assay: Kinase selectivity panel: Csk; type: biochemical
# [33] = molecular target: Fac (Homo sapiens, UniProt Q05397); assay: Kinase selectivity panel: Fac; type: biochemical
# [34] = molecular target: Jak3 (Homo sapiens, UniProt P52333); assay: Kinase selectivity panel: Jak3; type: biochemical
# [35] = molecular target: Akt; assay: Kinase selectivity panel: Akt; type: biochemical
# [36] = molecular target: Mek; assay: Kinase selectivity panel: Mek; type: biochemical
# [37] = molecular target: 6His-MAP kinase p38α (Homo sapiens, UniProt Q16539); assay: NMR chemical shift perturbation binding and displacement study; conditions: sub-stoichiometric peptide, slow-exchange limit; read-out: binding affinity indicated by slow-exchange chemical shift changes (NMR)
# [38] = system: basal phosphorylated MAP kinase p38α in Hela cells; assay: Basal p38α phosphorylation in Hela cells; type: cell-based; conditions: absence of any stimuli
# [39] = system: TNFα production in LPS stimulated THP-1 cells; assay: TNFα production in LPS stimulated THP-1 cells; type: cell-based; conditions: 1-1000 nM pre-incubation, LPS 10 μg/mL for 5 hours, ELISA
substance,measurement,setting,value
Ac-SRALLIFQKI [BB2700],IC50,[1],> 100 µM
same,IC50,[2],> 100 µM
same,IC50,[3],2.78 µM
same,IC50,[4],0.9 µM
same,IC50,[5],0.5 µM
same,IC50,[6],2.2 µM
Ac-HKSRALLIFQKIMWLRRQ [BB2702],IC50,[1],6.8 µM
same,IC50,[2],19.4 µM
same,IC50,[3],0.07 µM
same,IC50,[4],0.02 µM
same,IC50,[5],0.3 µM
same,IC50,[6],0.007 µM
same,Ki,[6]; read-out: biochemically derived Ki,0.007 µM
same,IC50,[7],> 10 µM
same,IC50,[8],> 10 µM
same,IC50,[9],> 0.75 µM
same,IC50,[10],> 10 µM
same,IC50,[11],> 10 µM
same,IC50,[12],> 10 µM
same,IC50,[13],> 10 µM
same,IC50,[14],> 10 µM
same,IC50,[15],> 10 µM
same,IC50,[16],> 10 µM
same,IC50,[17],> 10 µM
same,IC50,[18],> 10 µM
same,IC50,[19],> 10 µM
same,IC50,[20],> 10 µM
same,IC50,[21],0.15 µM
same,IC50,[22],> 10 µM
same,IC50,[23],> 10 µM
same,IC50,[24],> 10 µM
same,IC50,[25],> 10 µM
same,IC50,[26],4 µM
same,IC50,[27],7 µM
same,IC50,[28],> 10 µM
same,IC50,[29],4 µM
same,IC50,[30],0.75 µM
same,IC50,[31],> 10 µM
same,IC50,[32],3 µM
same,IC50,[33],> 10 µM
same,IC50,[34],7 µM
same,IC50,[35],~10 µM
same,IC50,[36],> 10 µM
same,Kd,[37],< 1 µM
same,effect on basal phosphorylated (activated) p38α,[38],reduces basal activated p38α
same,effect on TNFα production,[39],significant reduction in the production of TNFα
